Reference: PMC11024185
These are yes or no findings as the source states them, for the method shown. In cells and extracts the contact can be indirect. Here binding means that the protein was enriched with, or labelled near, the bait; the list need not be complete. For part of these data: Where a sequence is shown, tags or fusion partners need not be part of it.

Experiments:
[1] = biological target: T1, Drs1 R569Q (3x-Strep-Drs1 R569Q) (S. cerevisiae) (UniProt P32892); assay: affinity purification with mass spectrometry; purification of pre-60S intermediates from a drs1 R569Q strain by tags on Drs1 R569Q (3x-Strep) and Ssf1 (2x-ProtA); Coomassie-stained 4-20% SDS-PAGE
T1 sequence: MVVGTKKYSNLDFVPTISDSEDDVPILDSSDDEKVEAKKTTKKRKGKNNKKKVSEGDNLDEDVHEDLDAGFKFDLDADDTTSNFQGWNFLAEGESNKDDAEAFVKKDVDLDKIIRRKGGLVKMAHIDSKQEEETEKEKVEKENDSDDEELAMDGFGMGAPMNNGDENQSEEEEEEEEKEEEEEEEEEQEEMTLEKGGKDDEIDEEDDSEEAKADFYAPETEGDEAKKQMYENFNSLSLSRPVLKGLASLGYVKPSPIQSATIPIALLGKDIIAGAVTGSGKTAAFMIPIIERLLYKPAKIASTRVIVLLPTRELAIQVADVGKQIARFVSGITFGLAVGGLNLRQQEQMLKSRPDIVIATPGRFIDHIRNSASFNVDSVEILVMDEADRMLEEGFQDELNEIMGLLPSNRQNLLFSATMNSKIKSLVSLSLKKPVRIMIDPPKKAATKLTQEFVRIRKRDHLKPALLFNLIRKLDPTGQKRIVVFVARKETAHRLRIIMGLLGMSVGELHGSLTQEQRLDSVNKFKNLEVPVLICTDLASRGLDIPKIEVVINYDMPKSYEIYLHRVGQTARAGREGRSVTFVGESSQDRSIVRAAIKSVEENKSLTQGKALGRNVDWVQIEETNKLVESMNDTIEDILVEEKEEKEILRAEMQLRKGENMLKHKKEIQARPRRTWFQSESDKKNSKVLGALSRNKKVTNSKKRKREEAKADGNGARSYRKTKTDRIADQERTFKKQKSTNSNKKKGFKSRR

[2] = biological target: T2, Dbp10 R522V (sfGFP-3xSTREP-bdNEDD8-MYC-dbp10 R522V) (S. cerevisiae) (UniProt Q12389); assay: affinity purification with mass spectrometry; split-tag purification of pre-60S particles from yeast overexpressing dbp10 R522V (β-estradiol, 1 h): IgG Sepharose on Ssf1-2xProteinA, 3C cleavage, then Strep-Tactin on Dbp10 R522V, bdNEDD8 protease elution; 50 mM Bis-Tris-Propane pH 8.0, 125 mM NaCl, 25 mM KCl, 10 mM MgCl2; Coomassie-stained 4-20% SDS-PAGE, bands named by molecular weight, ambiguous bands by mass spectrometry
T2 sequence: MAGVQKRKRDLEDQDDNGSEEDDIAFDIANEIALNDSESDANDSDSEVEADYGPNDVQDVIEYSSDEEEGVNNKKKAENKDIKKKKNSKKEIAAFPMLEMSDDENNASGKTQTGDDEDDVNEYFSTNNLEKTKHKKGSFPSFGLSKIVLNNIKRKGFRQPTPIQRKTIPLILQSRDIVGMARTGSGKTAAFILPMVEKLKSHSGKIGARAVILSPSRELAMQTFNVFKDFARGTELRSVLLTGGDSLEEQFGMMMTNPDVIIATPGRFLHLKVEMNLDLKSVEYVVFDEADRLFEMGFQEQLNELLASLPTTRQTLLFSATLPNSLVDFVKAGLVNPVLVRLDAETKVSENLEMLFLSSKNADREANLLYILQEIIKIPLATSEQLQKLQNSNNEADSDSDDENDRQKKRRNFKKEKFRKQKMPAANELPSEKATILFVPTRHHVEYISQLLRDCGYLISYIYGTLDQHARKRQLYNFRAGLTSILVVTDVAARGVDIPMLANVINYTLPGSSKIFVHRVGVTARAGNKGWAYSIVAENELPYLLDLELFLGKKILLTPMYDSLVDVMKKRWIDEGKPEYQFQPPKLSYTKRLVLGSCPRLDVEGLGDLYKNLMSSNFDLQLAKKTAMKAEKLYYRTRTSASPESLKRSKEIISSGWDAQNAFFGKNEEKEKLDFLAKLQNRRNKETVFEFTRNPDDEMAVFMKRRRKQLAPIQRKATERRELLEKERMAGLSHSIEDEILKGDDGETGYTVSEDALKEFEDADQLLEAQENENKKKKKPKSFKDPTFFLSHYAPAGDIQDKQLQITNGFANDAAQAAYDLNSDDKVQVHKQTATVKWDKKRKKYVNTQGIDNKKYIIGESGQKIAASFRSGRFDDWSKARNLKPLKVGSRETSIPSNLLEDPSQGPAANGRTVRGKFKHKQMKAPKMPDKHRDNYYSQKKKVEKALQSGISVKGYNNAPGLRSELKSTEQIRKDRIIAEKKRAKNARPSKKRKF

[3] = biological target: T3, Ssf1-3xFLAG-3C-2xProteinA (S. cerevisiae) (UniProt P38789); assay: as above
T3 sequence: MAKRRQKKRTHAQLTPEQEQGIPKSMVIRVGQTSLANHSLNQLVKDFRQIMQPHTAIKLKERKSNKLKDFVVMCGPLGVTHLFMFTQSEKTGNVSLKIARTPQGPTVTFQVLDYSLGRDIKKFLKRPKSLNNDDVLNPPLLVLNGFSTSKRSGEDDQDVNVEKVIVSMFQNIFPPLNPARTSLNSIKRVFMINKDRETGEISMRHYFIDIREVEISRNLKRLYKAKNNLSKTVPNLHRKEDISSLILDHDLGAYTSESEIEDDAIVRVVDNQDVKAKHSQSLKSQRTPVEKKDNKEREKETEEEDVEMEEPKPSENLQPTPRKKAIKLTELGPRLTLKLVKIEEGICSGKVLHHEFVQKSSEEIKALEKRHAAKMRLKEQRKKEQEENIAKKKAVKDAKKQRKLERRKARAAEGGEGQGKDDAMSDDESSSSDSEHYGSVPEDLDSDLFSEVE

Measured: binding

B1: Cic1 (protein, UniProt P38779 1-376)
chain: MAKKSNSKKSTPVSTPSKEKKKVIEKKSSTAIPRERVIKAVNELIKFTSKPQDENNEEGNNGKKNLLEDDEEELKKDLQLIVVNNKSFTGTSKSFKLKLLNVKHSFYKPWKEASATAVKDFKVLLILKDSDIKKVSEDDLFDQLDSEGIKVDEIICGKDLKTVYKAYEARNAFISQFSLILADDSIVTSLPKLMGGKAYNKVETTPISIRTHANKEFSLTTLTNNIKKVYMNQLPVKLPRGTTLNVHLGNLEWLRPEEFVDNVELISEQLIKAYQIRSIFIKTNRSPVLPLYYNQDVLDELEAKKDKIEETHEDDMVTIDGVQVHLSTFNKGLMEIANPSELGSIFSKQINNAKKRSSSELEKESSESEAVKKAKS
binds: all assays above
